Results on one compound are retold here after patent US8084602B2, “Porphyrin derivatives and their use in photodynamic therapy” (Destiny Pharma Limited, priority 2002, dated 2011).

The structures appear in SMILES notation.

The data set deals with E. coli cells. In words: Binding of compounds with bacterial cells. It counts as cell-based. The following applies: 5 min incubation.

`CN(C)CCC[N+](C)(C)CCCOc1ccc(-c2c3nc(cc4ccc([nH]4)c(-c4ccc(OCCC[N+](C)(C)CCCN(C)C)cc4)c4nc(cc5ccc2[nH]5)C=C4)C=C3)cc1.[Cl-].[Cl-]` [Compound 8, 5,15-bis-(4-{3-[(3-Dimethylamino-propyl)-dimethylammonio]-propyloxy}-phenyl)-porphyrin dichloride]: the “Bound compound (nmoles/mg cell proteins)” value runs as follows: (0.01 μM, 0 washings) 0.024 ± 0.01 nmoles/mg cell proteins; (0.01 μM, 3 washings) 0.009 ± 0.001 nmoles/mg cell proteins; (0.1 μM, 0 washings) 0.056 ± 0.02 nmoles/mg cell proteins; (0.1 μM, 3 washings) 0.030 ± 0.02 nmoles/mg cell proteins; (0.5 μM, 0 washings) 0.522 ± 0.2 nmoles/mg cell proteins; (0.5 μM, 3 washings) 6.274 ± 0.15 nmoles/mg cell proteins. For the same compound, the “Bound compound (nmoles/mg cell proteins)” value is, setting by setting: (1 μM, 0 washings) 3.670 ± 0.7 nmoles/mg cell proteins; (1 μM, 3 washings) 2.230 ± 0.8 nmoles/mg cell proteins.
